Some of the results follow.
What follows are targets tested with COc1ccc(Cn2ccc3ccc(C(=O)NO)cc32)cc1 (assay: dose-dependent thermal stabilisation call (2D-TPP, DLPTP, 10% FDR) (binary (1 = stabilised)); higher = stabilised by the compound). Settings: system: HL-60 intact cells; concentration range 0.04-10 µM.

Protein sequences, listed by entry. Tags and fused reporters are not part of them. Lines headed by an entry give the natural chain unless they say otherwise; changes in a name come on top.
UniProt P55008: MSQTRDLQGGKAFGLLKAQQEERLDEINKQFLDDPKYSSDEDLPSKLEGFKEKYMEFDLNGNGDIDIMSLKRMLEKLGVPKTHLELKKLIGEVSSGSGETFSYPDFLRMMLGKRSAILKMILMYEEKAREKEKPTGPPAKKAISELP
UniProt Q9NX46: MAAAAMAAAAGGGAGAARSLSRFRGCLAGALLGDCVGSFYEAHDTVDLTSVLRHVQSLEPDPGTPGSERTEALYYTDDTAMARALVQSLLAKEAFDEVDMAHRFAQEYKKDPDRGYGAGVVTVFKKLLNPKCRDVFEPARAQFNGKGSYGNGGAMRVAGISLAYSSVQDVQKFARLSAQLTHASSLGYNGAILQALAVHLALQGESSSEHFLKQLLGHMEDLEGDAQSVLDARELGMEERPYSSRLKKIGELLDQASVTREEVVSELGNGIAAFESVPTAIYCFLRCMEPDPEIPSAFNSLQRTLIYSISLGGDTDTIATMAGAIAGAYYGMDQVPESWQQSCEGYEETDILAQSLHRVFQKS
UniProt O60488: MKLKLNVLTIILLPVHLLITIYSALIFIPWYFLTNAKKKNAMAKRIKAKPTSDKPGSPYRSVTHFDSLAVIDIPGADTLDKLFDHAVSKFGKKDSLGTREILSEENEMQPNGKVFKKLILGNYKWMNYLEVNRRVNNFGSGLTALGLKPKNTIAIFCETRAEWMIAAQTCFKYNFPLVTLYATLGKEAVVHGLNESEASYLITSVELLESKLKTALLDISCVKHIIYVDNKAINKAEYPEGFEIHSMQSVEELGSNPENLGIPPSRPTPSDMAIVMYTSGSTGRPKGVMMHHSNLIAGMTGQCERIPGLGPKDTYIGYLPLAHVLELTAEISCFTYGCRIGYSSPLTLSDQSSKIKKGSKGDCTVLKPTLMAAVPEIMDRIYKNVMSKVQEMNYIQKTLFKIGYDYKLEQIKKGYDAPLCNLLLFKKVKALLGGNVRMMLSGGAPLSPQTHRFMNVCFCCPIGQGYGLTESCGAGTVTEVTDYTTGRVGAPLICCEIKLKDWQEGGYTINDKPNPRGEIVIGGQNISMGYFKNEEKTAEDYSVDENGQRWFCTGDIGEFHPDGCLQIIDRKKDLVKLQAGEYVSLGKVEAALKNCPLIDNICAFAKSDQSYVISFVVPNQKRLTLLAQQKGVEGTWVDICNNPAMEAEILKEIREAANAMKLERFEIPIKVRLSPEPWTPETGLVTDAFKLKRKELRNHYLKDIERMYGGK
UniProt Q13017, whole entry: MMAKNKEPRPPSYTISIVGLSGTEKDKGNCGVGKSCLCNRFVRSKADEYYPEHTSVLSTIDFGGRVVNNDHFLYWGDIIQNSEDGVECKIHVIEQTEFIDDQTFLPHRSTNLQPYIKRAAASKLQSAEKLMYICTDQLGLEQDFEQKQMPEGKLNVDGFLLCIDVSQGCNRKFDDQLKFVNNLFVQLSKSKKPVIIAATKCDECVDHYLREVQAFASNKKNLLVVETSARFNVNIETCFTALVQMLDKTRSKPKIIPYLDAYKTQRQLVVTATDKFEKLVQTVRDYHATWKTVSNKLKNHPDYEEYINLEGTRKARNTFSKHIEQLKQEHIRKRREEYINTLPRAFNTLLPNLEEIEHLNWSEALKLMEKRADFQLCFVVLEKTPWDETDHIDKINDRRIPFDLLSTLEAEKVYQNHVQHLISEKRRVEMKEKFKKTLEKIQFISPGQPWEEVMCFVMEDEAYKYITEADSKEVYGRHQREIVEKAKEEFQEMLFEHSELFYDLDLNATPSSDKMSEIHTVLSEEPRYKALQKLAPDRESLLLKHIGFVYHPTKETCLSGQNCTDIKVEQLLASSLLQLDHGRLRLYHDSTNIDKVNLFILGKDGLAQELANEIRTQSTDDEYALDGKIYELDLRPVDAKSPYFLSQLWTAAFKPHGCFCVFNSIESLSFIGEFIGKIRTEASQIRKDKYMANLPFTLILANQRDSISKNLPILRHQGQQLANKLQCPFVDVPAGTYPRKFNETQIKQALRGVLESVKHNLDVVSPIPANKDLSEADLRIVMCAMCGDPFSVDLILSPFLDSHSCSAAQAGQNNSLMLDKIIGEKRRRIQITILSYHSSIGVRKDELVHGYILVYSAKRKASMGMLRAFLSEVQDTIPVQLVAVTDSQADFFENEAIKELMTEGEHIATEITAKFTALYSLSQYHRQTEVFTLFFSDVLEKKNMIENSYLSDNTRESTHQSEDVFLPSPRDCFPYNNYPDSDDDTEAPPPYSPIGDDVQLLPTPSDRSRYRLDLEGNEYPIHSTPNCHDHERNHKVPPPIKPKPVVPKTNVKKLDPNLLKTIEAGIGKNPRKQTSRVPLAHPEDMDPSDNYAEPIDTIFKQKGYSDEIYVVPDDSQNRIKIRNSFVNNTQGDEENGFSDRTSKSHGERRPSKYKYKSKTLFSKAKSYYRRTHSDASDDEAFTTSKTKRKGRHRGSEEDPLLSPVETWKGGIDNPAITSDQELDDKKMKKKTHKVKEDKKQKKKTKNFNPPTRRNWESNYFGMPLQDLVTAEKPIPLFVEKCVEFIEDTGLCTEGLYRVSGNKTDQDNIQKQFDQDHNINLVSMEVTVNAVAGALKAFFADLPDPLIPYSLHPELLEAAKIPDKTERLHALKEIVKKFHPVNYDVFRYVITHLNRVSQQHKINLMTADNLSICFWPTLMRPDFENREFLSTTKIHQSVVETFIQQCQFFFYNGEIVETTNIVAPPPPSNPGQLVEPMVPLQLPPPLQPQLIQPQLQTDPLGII
UniProt Q68EM7: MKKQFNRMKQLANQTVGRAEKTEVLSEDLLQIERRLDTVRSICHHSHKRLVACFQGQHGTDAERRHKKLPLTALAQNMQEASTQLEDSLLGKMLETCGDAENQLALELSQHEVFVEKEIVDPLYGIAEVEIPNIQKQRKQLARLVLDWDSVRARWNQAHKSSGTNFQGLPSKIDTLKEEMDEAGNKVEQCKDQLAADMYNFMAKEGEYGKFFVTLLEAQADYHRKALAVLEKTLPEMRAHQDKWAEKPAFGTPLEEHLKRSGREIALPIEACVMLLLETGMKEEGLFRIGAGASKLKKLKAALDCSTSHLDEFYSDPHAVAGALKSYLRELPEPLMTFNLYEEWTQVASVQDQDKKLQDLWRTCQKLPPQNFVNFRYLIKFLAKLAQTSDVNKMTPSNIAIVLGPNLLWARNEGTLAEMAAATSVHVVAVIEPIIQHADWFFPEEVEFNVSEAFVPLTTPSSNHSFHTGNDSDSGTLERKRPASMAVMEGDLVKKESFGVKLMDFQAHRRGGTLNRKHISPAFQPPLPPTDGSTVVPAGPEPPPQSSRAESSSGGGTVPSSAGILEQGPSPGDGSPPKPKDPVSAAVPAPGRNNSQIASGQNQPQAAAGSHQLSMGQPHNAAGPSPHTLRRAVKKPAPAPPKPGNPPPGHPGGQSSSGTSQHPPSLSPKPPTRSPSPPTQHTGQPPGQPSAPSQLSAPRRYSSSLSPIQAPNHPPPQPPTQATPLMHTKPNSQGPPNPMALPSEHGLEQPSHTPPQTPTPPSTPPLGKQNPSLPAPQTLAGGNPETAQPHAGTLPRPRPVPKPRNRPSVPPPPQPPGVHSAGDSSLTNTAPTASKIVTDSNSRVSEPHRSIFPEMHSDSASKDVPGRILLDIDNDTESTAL
UniProt Q9BUR5: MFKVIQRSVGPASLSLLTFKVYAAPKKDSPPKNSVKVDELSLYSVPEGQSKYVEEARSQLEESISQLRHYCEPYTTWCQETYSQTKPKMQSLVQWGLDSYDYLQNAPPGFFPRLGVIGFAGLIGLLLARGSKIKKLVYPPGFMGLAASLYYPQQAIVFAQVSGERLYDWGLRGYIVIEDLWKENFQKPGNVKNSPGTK
UniProt Q01433: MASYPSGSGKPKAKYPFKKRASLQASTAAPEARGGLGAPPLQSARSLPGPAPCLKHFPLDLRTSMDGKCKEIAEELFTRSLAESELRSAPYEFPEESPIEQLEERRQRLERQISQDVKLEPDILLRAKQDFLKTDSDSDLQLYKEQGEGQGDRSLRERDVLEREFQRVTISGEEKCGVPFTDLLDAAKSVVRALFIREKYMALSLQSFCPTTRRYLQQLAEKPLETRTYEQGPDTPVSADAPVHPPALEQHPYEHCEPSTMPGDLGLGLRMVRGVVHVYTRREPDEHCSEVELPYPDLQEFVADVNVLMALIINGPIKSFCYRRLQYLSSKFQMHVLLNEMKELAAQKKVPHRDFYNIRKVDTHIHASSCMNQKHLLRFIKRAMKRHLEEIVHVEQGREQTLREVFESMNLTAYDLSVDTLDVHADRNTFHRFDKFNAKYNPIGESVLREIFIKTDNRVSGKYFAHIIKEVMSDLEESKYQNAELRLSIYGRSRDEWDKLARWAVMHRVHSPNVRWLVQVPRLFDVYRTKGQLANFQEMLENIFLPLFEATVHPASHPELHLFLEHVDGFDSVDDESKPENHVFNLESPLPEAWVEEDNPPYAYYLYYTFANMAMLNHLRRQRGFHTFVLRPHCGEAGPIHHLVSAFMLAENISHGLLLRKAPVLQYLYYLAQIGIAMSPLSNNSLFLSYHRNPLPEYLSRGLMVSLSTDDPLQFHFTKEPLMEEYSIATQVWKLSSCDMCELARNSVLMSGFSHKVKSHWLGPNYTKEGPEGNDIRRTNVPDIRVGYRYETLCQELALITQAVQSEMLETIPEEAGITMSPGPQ
UniProt Q9H3P7: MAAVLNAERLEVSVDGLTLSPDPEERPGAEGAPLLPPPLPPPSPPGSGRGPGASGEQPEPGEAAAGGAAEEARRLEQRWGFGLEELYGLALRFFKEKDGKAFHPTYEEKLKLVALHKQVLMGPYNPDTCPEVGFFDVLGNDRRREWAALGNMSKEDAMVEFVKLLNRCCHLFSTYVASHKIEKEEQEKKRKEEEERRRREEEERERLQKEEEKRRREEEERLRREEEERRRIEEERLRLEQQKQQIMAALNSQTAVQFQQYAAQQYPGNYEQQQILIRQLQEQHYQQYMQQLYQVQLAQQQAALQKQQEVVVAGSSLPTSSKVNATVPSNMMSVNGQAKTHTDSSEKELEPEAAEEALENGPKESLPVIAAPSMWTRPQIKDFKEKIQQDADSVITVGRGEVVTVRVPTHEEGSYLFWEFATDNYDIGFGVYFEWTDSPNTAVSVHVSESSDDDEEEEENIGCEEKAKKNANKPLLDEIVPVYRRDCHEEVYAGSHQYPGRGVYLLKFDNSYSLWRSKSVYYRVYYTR
UniProt Q01432: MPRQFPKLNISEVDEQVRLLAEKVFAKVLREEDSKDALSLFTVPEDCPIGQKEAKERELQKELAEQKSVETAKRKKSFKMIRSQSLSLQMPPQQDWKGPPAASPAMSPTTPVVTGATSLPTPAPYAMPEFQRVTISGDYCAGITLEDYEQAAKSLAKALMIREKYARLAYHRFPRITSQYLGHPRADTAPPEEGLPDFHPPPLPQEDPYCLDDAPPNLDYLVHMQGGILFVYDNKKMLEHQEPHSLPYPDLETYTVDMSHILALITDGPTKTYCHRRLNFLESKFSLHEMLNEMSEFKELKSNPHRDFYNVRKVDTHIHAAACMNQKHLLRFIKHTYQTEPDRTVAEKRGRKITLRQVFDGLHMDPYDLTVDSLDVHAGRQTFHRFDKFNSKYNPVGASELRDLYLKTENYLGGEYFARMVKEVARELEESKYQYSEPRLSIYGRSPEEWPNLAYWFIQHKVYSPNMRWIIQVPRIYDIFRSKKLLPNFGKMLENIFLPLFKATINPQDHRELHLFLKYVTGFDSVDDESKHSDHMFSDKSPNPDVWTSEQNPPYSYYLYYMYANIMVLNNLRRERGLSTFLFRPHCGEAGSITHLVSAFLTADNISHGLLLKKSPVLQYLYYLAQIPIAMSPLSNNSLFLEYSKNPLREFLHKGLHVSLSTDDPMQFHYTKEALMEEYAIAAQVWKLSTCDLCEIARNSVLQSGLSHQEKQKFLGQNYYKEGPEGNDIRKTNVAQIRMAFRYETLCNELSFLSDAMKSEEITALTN
UniProt P52594: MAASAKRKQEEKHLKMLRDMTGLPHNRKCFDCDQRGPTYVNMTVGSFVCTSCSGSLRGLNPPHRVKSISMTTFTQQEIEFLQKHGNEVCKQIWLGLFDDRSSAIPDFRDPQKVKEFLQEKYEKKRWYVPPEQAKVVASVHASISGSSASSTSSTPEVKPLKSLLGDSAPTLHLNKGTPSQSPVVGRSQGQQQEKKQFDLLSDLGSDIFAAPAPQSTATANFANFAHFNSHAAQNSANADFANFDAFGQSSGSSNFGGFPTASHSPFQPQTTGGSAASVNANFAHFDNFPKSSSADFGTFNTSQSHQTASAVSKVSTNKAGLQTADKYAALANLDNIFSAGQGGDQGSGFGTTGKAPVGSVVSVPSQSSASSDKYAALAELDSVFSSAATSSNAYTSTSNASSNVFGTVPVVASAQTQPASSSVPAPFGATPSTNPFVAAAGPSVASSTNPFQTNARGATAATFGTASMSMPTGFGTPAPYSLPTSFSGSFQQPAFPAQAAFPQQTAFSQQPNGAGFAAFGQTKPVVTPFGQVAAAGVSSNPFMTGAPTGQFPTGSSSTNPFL

Target	dose-dependent thermal stabilisation call
AIF1 (UniProt P55008)	inactive: 0
ADPRHL2 (UniProt Q9NX46)	inactive: 0
ACSL4 (UniProt O60488)	inactive: 0
ARHGAP5 (UniProt Q13017)	inactive: 0
ARHGAP17 (UniProt Q68EM7)	inactive: 0
APOO (UniProt Q9BUR5)	inactive: 0
AMPD2 (UniProt Q01433)	inactive: 0
ACBD3 (UniProt Q9H3P7)	inactive: 0
AMPD3 (UniProt Q01432)	inactive: 0
AGFG1 (UniProt P52594)	inactive: 0
ANLN (UniProt Q9NQW6)	inactive: 0

Some of the entries so far, in markdown.

| Target | dose-dependent thermal stabilisation call |
| --- | --- |
| AMPD3 (UniProt Q01432) | inactive: 0 |
| AGFG1 (UniProt P52594) | inactive: 0 |

From the supplement of paper PMC7666118
